Test results from the supplement of paper PMC9433722.
Structures can show the parent of a compound that is named as a salt. Some of the results follow. Many values rest on one well or one pass, so single values are uncertain.

Experiments:
[1] = tested on: Saos-2; assay: cell viability (CCK-8) relative to DMSO control (% of control); higher = less cytotoxic; settings: 10 µM; 48 h
[2] = tested on: U2OS; assay: as above; settings: 10 µM; 48 h

SMILES	cell viability [1]	cell viability [2]
CC(C)OC(=O)CCC/C=C\C[C@@H]1[C@@H](CC[C@@H](O)CCc2ccccc2)[C@H](O)C[C@@H]1O [Latanoprost]	67.7	121
NC(=O)OCC(COC(N)=O)c1ccccc1 [Felbamate]	61.7	90.2
Nc1nnc(-c2cccc(Cl)c2Cl)c(N)n1 [Lamotrigine]	55.9	102
CN1CCN2c3ncccc3Cc3ccccc3C2C1 (configuration not stated) [Mirtazapine]	103	103
Cn1nnc2c(C(N)=O)ncn2c1=O [Temozolomide]	64.8	106
CCCc1nc2c(C)cc(-c3nc4ccccc4n3C)cc2n1Cc1ccc(-c2ccccc2C(=O)O)cc1 [Telmisartan]	53.9	88.9
Cc1c2oc3c(C)ccc(C(=O)N[C@@H]4C(=O)N[C@H](C(C)C)C(=O)N5CCC[C@H]5C(=O)N(C)CC(=O)N(C)[C@@H](C(C)C)C(=O)O[C@@H]4C)c3nc-2c(C(=O)N[C@@H]2C(=O)N[C@H](C(C)C)C(=O)N3CCC[C@H]3C(=O)N(C)CC(=O)N(C)[C@@H](C(C)C)C(=O)O[C@@H]2C)c(N)c1=O [Actinomycin D]	36.6	30.2
Cn1ccnc1S [Methimazole]	73.5	106
CN1[C@@H]2CC[C@H]1C[C@@H](OC(c1ccccc1)c1ccccc1)C2 [Benztropine . mesylate]	114	109
Cc1ccc(-c2cc(C(F)(F)F)nn2-c2ccc(S(N)(=O)=O)cc2)cc1 [Celecoxib]	64.4	103
Nc1ccn([C@@H]2O[C@H](CO)[C@@H](O)[C@@H]2O)c(=O)n1 [Cytarabine]	60.6	84.2
CC(=O)CCCCn1c(=O)c2c(ncn2C)n(C)c1=O [Pentoxifylline]	63.6	93.9
CCC(=O)O[C@]1(C(=O)CCl)[C@@H](C)C[C@H]2[C@@H]3C[C@H](F)C4=CC(=O)C=C[C@]4(C)[C@@]3(F)[C@@H](O)C[C@@]21C [Halobetasol Propionate]	118	108
OC[C@H]1O[C@@H](O[C@@H]2[C@@H](CO)OC(O)(CO)[C@H]2O)[C@H](O)[C@@H](O)[C@H]1O (mixture of isomers) [Lactulose]	117	86.6
CC(C)[N+]1(C)[C@@H]2CC[C@H]1C[C@@H](OC(=O)C(CO)c1ccccc1)C2 (some centres not stated) [Ipratropium . bromide]	61.2	111
O=C1CN2Cc3c(ccc(Cl)c3Cl)N=C2N1 [Anagrelide]	57.3	108
C[C@H]1O[C@@H](O[C@H]2[C@@H](O)C[C@H](O[C@H]3[C@@H](O)C[C@H](O[C@H]4CC[C@@]5(C)[C@H](CC[C@@H]6[C@@H]5C[C@@H](O)[C@]5(C)[C@@H](C7=CC(=O)OC7)CC[C@]65O)C4)O[C@@H]3C)O[C@@H]2C)C[C@H](O)[C@@H]1O [Digoxin]	25.1	14.2
CCN(Cc1ccncc1)C(=O)C(CO)c1ccccc1 (configuration not stated) [Tropicamide]	58.8	107
Clc1ccc(COC(Cn2ccnc2)c2ccc(Cl)cc2Cl)cc1 (configuration not stated) [Econazole Nitrate]	129	107
O=C(O)CCCc1ccccc1 [Sodium Phenylbutyrate]	61.2	111
CC(=O)NO [Acetohydroxamic Acid]	95.6	84.5
Cc1ccc(C(=O)c2ccc(CC(=O)O)n2C)cc1 [Tolmetin sodium dihydrate]	66.5	98.3
CN[C@H](CC(C)C)C(=O)N[C@H]1C(=O)N[C@@H](CC(N)=O)C(=O)N[C@H]2C(=O)N[C@H]3C(=O)N[C@H](C(=O)N[C@H](C(=O)O)c4cc(O)cc(O)c4-c4cc3ccc4O)[C@H](O)c3ccc(c(Cl)c3)Oc3cc2cc(c3O[C@@H]2O[C@H](CO)[C@@H](O)[C@H](O)[C@H]2O[C@H]2C[C@](C)(N)[C@H](O)[C@H](C)O2)Oc2ccc(cc2Cl)[C@H]1O [Vancomycin . hydrochloride]	134	83.9
CC(=O)/N=c1/sc(S(N)(=O)=O)nn1C [Methazolamide]	90.8	92.5
CC(C)NCC(O)c1ccc(O)c(O)c1 (racemic) [(±) Isoproterenol·HCl]	59.5	113
O=C1C(O)=C([C@H]2CC[C@H](c3ccc(Cl)cc3)CC2)C(=O)c2ccccc21 [Atovaquone]	58.9	101

Grouped by structure, those above with fluorine
SMILES	cell viability [1]	cell viability [2]
Cc1ccc(-c2cc(C(F)(F)F)nn2-c2ccc(S(N)(=O)=O)cc2)cc1 [Celecoxib]	64.4	103
CCC(=O)O[C@]1(C(=O)CCl)[C@@H](C)C[C@H]2[C@@H]3C[C@H](F)C4=CC(=O)C=C[C@]4(C)[C@@]3(F)[C@@H](O)C[C@@]21C [Halobetasol Propionate]	118	108
